# Assay results from publication doi:10.1101/2020.03.02.973859.
# These are yes or no findings as the source states them, for the method shown. Binding seen in cells or lysates may run through a third protein. These calls come from enrichment with a bait or labelling near it, and not all partners need be listed. No binding means not detected with the bait.
# T1: K+/Cl- co-transporter KCC2 (mouse (endogenous in mouse forebrain)) (UniProt Q91V14)
# T1 sequence: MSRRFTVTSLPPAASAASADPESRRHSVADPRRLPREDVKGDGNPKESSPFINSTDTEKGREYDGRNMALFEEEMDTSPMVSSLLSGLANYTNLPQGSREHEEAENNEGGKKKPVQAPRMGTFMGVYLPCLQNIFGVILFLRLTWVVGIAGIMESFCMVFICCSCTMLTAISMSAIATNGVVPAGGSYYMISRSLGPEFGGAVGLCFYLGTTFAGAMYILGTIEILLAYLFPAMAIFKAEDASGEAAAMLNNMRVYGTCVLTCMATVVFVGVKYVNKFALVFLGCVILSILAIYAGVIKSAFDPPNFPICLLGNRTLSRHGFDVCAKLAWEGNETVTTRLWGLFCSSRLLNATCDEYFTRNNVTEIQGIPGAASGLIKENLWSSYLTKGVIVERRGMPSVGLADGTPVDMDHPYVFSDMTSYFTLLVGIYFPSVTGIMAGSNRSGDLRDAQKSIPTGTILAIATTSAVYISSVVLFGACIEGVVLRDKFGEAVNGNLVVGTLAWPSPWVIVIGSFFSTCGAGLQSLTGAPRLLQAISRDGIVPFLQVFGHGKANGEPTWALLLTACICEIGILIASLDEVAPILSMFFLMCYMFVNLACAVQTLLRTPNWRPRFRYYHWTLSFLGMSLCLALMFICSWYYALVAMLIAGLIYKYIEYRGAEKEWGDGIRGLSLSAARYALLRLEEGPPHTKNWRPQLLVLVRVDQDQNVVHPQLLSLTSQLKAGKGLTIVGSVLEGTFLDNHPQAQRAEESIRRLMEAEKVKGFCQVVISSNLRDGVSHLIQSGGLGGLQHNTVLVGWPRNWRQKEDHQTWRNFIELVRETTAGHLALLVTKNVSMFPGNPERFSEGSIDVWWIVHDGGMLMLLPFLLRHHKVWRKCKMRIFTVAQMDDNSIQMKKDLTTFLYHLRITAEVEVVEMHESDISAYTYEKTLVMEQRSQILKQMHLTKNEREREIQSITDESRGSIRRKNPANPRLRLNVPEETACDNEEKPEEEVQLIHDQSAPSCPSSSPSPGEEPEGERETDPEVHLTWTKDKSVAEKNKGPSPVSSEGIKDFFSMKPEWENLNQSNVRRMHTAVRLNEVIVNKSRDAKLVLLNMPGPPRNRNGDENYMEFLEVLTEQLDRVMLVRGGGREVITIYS
# T2: K+/Cl- co-transporter KCC2 (mouse (endogenous in mouse forebrain)), Q91V14
# T2 chain: T1 sequence
# B1: ARHGEF7 (protein, UniProt Q9ES28 1-862)
# chain: MNSAEQTVTWLITLGVLESPKKTISDPEVFLQASLKDGVVLCRLLERLLPGTIEKVYPEPRNESECLSNIREFLRACGASLRLETFDANDLYQGQNFNKVLSSLVTLNKVTADIGLGSDSVCARPSSHRIKSFDSLGSQSSHSRTSKLLQSQYRSLDMTDNTNSQLVVRAKFNFQQTNEDELSFSKGDVIHVTRVEEGGWWEGTHNGRTGWFPSNYVREIKPSEKPVSPKSGTLKSPPKGFDTTAINKSYYNVVLQNILETEHEYSKELQSVLSTYLRPLQTSDKLSSANTSYLMGNLEEISSFQQVLVQSLEECTKSPEAQQRVGGCFLSLMPQMRTLYLAYCANHPSAVSVLTEHSEDLGEFMETKGASSPGILVLTTGLSKPFMRLDKYPTLLKELERHMEDYHPDRQDIQKSMTAFKNLSAQCQEVRKRKELELQILTEPIRSWEGDDIKTLGSVTYMSQVTIQCAGSEEKNERYLLLFPNLLLMLSASPRMSGFIYQGKLPTTGMTITKLEDSENHRNAFEISGSMIERILVSCTSQQDLHEWVEHLQKQTKVTSVSNPTIKPHSVPSHTLPSHPLTPSSKHADSKPVALTPAYHTLPHPSHHGTPHTTISWGPLEPPKTPKPWSLSCLRPAPPLRPSAALCYKEDLSKSPKTMKKLLPKRKPERKPSDEEFAVRKSTAALEEDAQILKVIEAYCTSAKTRQTLNSTWQGTDLMHNHVLADDDQSSLDSLGRRSSLSRLEPSDLSEDSEYDSIWTAHSYRMGSASRSRKESAPQVLLPEEEKIIVEETKSNGQTVIEEKSLVDTVYALKDEVQELRQDNKKMKKSLEEEQRARKDLEKLVRKVLKNMNDPAWDETNL
# B2: RCC1 (protein, UniProt Q8VE37 1-421)
# chain: MPPKRIAKRRSPPEDAIPKSKKVKVSHRSHNTEPGLVLTLGQGDVGQLGLGESVLERKKPALVPLLQDVVQAEAGGMHTVCLSQSGQVYSFGCNDEGALGRDTSVEGSEMVPGKVELQEKVVQVSAGDSHTAALTEDGRVFLWGSFRDNNGVIGLLEPMKKSMVPVQVQLDAPVVKVASGNDHLVMLTNDGDLYTLGCGEQGQLGRVPELFANRGGRQGLGRLLVPRCVLLKSRGTRGRVRFQDAFCGAYFTFAISREGHVYGFGLSNYHQLGTPGTGSCFIPQNLTSFKNSTKSWVGFSGGQHHTVCMDSEGKAYSLGRAEYGRLGLGEGAEEKSIPTLISRLPVVSSVACGASVGYAVSKDGRVFAWGMGTNYQLGTGQDEDAWSPVEMTGKQLENRVVLTVSSGGQHTVLLVKDQAQS
# B3: CNTN1 (protein, UniProt P12960 21-1001)
# chain: DFTWHRRYGHGVSEEDKGFGPIFEEQPINTIYPEESLEGKVSLNCRARASPFPVYKWRMNNGDVDLTNDRYSMVGGNLVINNPDKQKDAGVYYCLASNNYGMVRSTEATLSFGYLDPFPPEERPEVKVKEGKGMVLLCDPPYHFPDDLSYRWLLNEFPVFITMDKRRFVSQTNGNLYIANVESSDRGNYSCFVSSPSITKSVFSKFIPLIPIPERTTKPYPADIVVQFKDIYTMMGQNVTLECFALGNPVPDIRWRKVLEPMPSTAEISTSGAVLKIFNIQLEDEGLYECEAENIRGKDKHQARIYVQAFPEWVEHINDTEVDIGSDLYWPCIATGKPIPTIRWLKNGYSYHKGELRLYDVTFENAGMYQCIAENAYGSIYANAELKILALAPTFEMNPMKKKILAAKGGRVIIECKPKAAPKPKFSWSKGTEWLVNSSRILIWEDGSLEINNITRNDGGIYTCFAENNRGKANSTGTLVITNPTRIILAPINADITVGENATMQCAASFDPALDLTFVWSFNGYVIDFNKEITHIHYQRNFMLDANGELLIRNAQLKHAGRYTCTAQTIVDNSSASADLVVRGPPGPPGGLRIEDIRATSVALTWSRGSDNHSPISKYTIQTKTILSDDWKDAKTDPPIIEGNMESAKAVDLIPWMEYEFRVVATNTLGTGEPSIPSNRIKTDGAAPNVAPSDVGGGGGTNRELTITWAPLSREYHYGNNFGYIVAFKPFDGEEWKKVTVTNPDTGRYVHKDETMTPSTAFQVKVKAFNNKGDGPYSLVAVINSAQDAPSEAPTEVGVKVLSSSEISVHWKHVLEKIVESYQIRYWAGHDKEAAAHRVQVTSQEYSARLENLLPDTQYFIEVGACNSAGCGPSSDVIETFTRKAPPSQPPRIISSVRSGSRYIITWDHVVALSNESTVTGYKILYRPDGQHDGKLFSTHKHSIEVPIPRDGEYVVEVRAHSDGGDGVVSQVKISGVSTLS
# B4: SNAP91 (protein, UniProt Q61548 1-901)
# chain: MSGQTLTDRIAAAQYSVTGSAVARAVCKATTHEVMGPKKKHLDYLIQATNETNVNIPQMADTLFERATNSSWVVVFKALVTTHHLMVHGNERFIQYLASRNTLFNLSNFLDKSGSHGYDMSTFIRRYSRYLNEKAFSYRQMAFDFARVKKGADGVMRTMVPEKLLKSMPILQGQIDALLEFDVHPNELTNGVINAAFMLLFKDLIKLFACYNDGVINLLEKFFEMKKGQCKDALEIYKRFLTRMTRVSEFLKVAEQVGIDKGDIPDLTQAPSSLMETLEQHLNTLEGKKPGNNEGSGAPSPLSKSSPATTVTSPNSTPAKTIDTSPPVDIFATASAAAPVSSAKPSSDLLDLQPDFSGAAAGAAAPVVPPSGGATAWGDLLGEDSLAALSSVPCEAPISDPFAPEPSPPTTTTEPASASASTTTAVTAVTTEVDLFGDAFAASPGEAPAASEGATAPATPAPVAAALDACSGNDPFAPSEGSAEAAPELDLFAMKPPETSAPVVTPTASTAPPVPATAPSPAPTAVAATAATTTAAAAATTTATTSAAAATTAAAPPALDIFGDLFDSAPEVAAAPKPDAAPSIDLFGTDAFSSPPRGASPVPESSLTADLLSVDAFAAPSPASTASPAKAESSGVIDLFGDAFGSGASETQPAPQAVSSSSASADLLAGFGGSFMAPSTTPVTPAQNNLLQPSFEAAFGTTPSTSSSSSFDPSVFDGLGDLLMPTMAPSGQPAPVSMVPPSPAMAASKGLGSDLDSSLASLVGNLGISGTTSKKGDLQWNAGEKKLTGGANWQPKVTPATWSAGVPPQGTVPPTSSVPPGAGAPSVGQPGAGFGMPPSGTGMTMMSQQPVMFAQPMMRPPFGAAAVPGTQLSPSPTPATQSPKKPPAKDPLADLNIKDFL
# B5: NETO2, Q8BNJ6 23-525 (protein)
# chain: IAVAQKTQDGQNIGIKHIPATQCGIWVRTSNGGHFASPNYPDSYPPNKECIYILEAAPRQRIELTFDERYYIEPSFECRFDHLEIRDGPFGFSPLIDRYCGMKSPALIRSTGRFMWIKFSSDEELEGLGFRAKYSFIPDPDFTYLGGILNPIPDCQFELSGADGIVRSSQVEQEEKTKPGQAVDCIWTIKATPKAKIYLRFLDYQMEHSNECKRNFVAVYDGSSAIENLKAKFCSTVANDVMLKTGVGVIRMWADEGSRLSRFRMLFTSFVEPPCTSSTFFCHSNMCINNSLVCNGVQNCAYPWDENHCKEKKKAGLFEQITKTHGTIIGITSGIVLVLLIISILVQVKQPRKKVMACKTAFNKTGFQEVFDPPHYELFSLREKEISADLADLSEELDNYQKLRRSSTASRCIHDHHCGSQASSVKQSRTNLSSMELPFRNDFAQPQPMKTFNSTFKKSSYTFKQAHECPEQALEDRVMEEIPCEIYVRGRDDSAQASISIDF
# B6: GRIK2, P39087 32-908 (receptor)
# chain: TTHVLRFGGIFEYVESGPMGAEELAFRFAVNTINRNRTLLPNTTLTYDTQKINLYDSFEASKKACDQLSLGVAAIFGPSHSSSANAVQSICNALGVPHIQTRWKHQVSDNKDSFYVSLYPDFSSLSRAILDLVQFFKWKTVTVVYDDSTGLIRLQELIKAPSRYNLRLKIRQLPADTKDAKPLLKEMKRGKEFHVIFDCSHEMAAGILKQALAMGMMTEYYHYIFTTLDLFALDVEPYRYSGVNMTGFRILNTENTQVSSIIEKWSMERLQAPPKPDSGLLDGFMTTDAALMYDAVHVVSVAVQQFPQMTVSSLQCNRHKPWRFGTRFMSLIKEAHWEGLTGRITFNKTNGLRTDFDLDVISLKEEGLEKIGTWDPSSGLNMTESQKGKPANITDSLSNRSLIVTTILEEPYVLFKKSDKPLYGNDRFEGYCIDLLRELSTILGFTYEIRLVEDGKYGAQDDVNGQWNGMVRELIDHKADLAVAPLAITYVREKVIDFSKPFMTLGISILYRKPNGTNPGVFSFLNPLSPDIWMYILLAYLGVSCVLFVIARFSPYEWYNPHPCNPDSDVVENNFTLLNSFWFGVGALMQQGSELMPKALSTRIVGGIWWFFTLIIISSYTANLAAFLTVERMESPIDSADDLAKQTKIEYGAVEDGATMTFFKKSKISTYDKMWAFMSSRRQSVLVKSNEEGIQRVLTSDYAFLMESTTIEFVTQRNCNLTQIGGLIDSKGYGVGTPMGSPYRDKITIAILQLQEEGKLHMMKEKWWRGNGCPEEESKEASALGVQNIGGIFIVLAAGLVLSVFVAVGEFLYKSKKNAQLEKRSFCSAMVEELRMSLKCQRRLKHKPQAPVIVKTEEVINMHTFNDRRLPGKETMA
# Target: T1, K+/Cl- co-transporter KCC2 (mouse (endogenous in mouse forebrain))
# Assay: affinity purification with mass spectrometry
# Details: not given
row,binding,Binder
1,no binding,B1
2,no binding,B2
3,binds,B3
4,binds,B4

# Target: T2, K+/Cl- co-transporter KCC2 (mouse …)
# Assay: affinity purification with mass spectrometry
# Details: remark: other sources report otherwise
row,binding,Binder
1,no binding,B5
2,no binding,B6
